PubChem BioAssay AID686937 – Drosophila RNAi Screening Center, 2013

- Purpose: 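Knock-downs that reduce output of a secreted reporter enzyme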 (primary screen)
- Cell system: Drosophila S2 cells expressing secreted horseradish peroxidase
- Knock-down reagent: long dsRNA against Drosophila genes
- Time to read-out: about 5.5 days (5 days dsRNA, then 12 h reporter induction)
- Treatment: reporter expression induced after 5 days of dsRNA, read 12 h later; inducer not stated
- Read-out: 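Chemiluminescent measurement of peroxidase in the medium 12 h after reporter induction, following 5 days of dsRNA, given as a z-score per plate; higher means more secretion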
- Direction: z-score: higher = more reporter secreted into medium
The deposit covers about 23,000 reagents; this is an unselected part of those with a known target gene and a result. 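Reduced-secretion tags in replicate 1 do not always agree with the z-scores; no criterion for assigning the tags was given.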 Names joined by + are all predicted targets of the reagent. Not all columns of the deposit are shown. Not given: the amount of reagent.

| target | amplicon | z-score, replicate 1 |
| --- | --- | --- |
| Mst84Db | DRSC12542 | 0.34 |
| Mst84Db | DRSC12598 | 0.18 |
| mRpL55 | DRSC14764 | 0.37 |
| CG34386 | DRSC06467 | -1.54 |
| CG34386 | DRSC06468 | 0.23 |
| CG14074 | DRSC10079 | 0.08 |
| CG1463 | DRSC19603 | 0.52 |
| Gr98a | DRSC14719 | -1.55 |
| CG10405 | DRSC14238 | -0.57 |
| S6kII | DRSC20645 | 0.45 |
| ccb | DRSC20501 | 0.22 |
| CG31735 | DRSC01518 | 0.46 |
| Eip63F-1 | DRSC08072 | -0.25 |
| Eip63F-1 | DRSC08659 | 0.66 |
| ben | DRSC20310 | 0.23 |
| ben | DRSC21261 | 0.58 |
| Spn28Da | DRSC02162 | 0.38 |
| Trf2 | DRSC18727 | -1.1 |
| hppy | DRSC07014 | 0.27 |
| hppy | DRSC07015 | 0.44 |
| hppy | DRSC07016 | 0.18 |
| Cyp6g1 | DRSC07386 | 0.27 |
| CG14107 | DRSC10110 | -0.5 |
| Or49b | DRSC07494 | 0.34 |
| Ekar | DRSC17161 | 0.24 |
| LUBEL | DRSC02141 | 0.25 |
| CG17612 | DRSC00505 | 0.18 |
| CG14731 | DRSC14952 | 0.25 |
| epsilonTry | DRSC07611 | 0.29 |
| mld | DRSC13681 | 0.54 |
| mld | DRSC14622 | 0.06 |
| CG5079 | DRSC15713 | -2.19 |
| E(spl)m4-BFM | DRSC16992 | 0.08 |
| RpS6 | DRSC18712 | -2.9 |
| a | DRSC04667 | 0.3 |
| a | DRSC04668 | 0.54 |
| CR32733 | DRSC17481 | -1.12 |
| CG8993 | DRSC08616 | 0.31 |
| Kr-h1 | DRSC00908 | -0.95 |
| Kr-h1 | DRSC03355 | -0.21 |
| Ocrl | DRSC18576 | -0.09 |
| Pu | DRSC04645 | 0.02 |
| NimC1 | DRSC01879 | 0 |
| Dpy-30L2 | DRSC08205 | 0.54 |
| Hr51 | DRSC06627 | 0.07 |
| Hr51 | DRSC22829 | -0.7 |
| Ae2 | DRSC08997 | -1.43 |
| Ae2 | DRSC10969 | 0.01 |
| CG18367 | DRSC06545 | 0.48 |
| arm | DRSC18738 | 0.22 |
| CG8509 | DRSC20109 | 0.27 |
| Atac2 | DRSC02053 | 0.14 |
| PH4alphaPV | DRSC22400 | 0.55 |
| Karl | DRSC19883 | -0.18 |
| mei-P26 | DRSC17735 | -2.16 |
| Arc2 | DRSC06436 | -0.08 |
| Cdk1 | DRSC03504 | -2.48 |
| CG13563 | DRSC22153 | -1.22 |
| Gal | DRSC03134 | 0.2 |
| geminin | DRSC04984 | 0.29 |
| bab2 | DRSC08150 | 0.01 |
| bab2 | DRSC08380 | 0.64 |
| CG16813 | DRSC02520 | 0.33 |
| mei-41 | DRSC20350 | 0.15 |
| CG2852 | DRSC04321 | 0.37 |
| eIF2Bepsilon | DRSC18769 | -0.23 |
| CG11018 | DRSC06024 | 0.12 |
| Ir7d | DRSC18010 | 0.1 |
| bab1 | DRSC08379 | 0.51 |
| bab1 | DRSC08709 | 0.65 |
| bab1 | DRSC21882 | -0.52 |
| His3.3A | DRSC03343 | -1.38 |
| GNBP1 | DRSC11169 | 0.25 |
| GNBP1 | DRSC21836 | 1.28 |
| Fatp2 | DRSC03971 | -2.32 |
| Fatp2 | DRSC04178 | 0.18 |
| Fatp2 | DRSC04330 | 0.13 |
| TyrRII | DRSC15150 | 0.37 |
| CG31673 | DRSC03207 | 0.12 |
| lili | DRSC14143 | 0.11 |
| Jhbp15 | DRSC15217 | -0.05 |
| mgl | DRSC17800 | 0.3 |
| mgl | DRSC17823 | 0.19 |
| mgl | DRSC17859 | 0.51 |
| mgl | DRSC18004 | 0.51 |
| Dtd | DRSC15362 | 0.08 |
| CG11970 | DRSC14157 | 0.26 |
| Alp12 | DRSC02515 | -0.01 |
| Chchd3 | DRSC16981 | -1.6 |
| CG12986 | DRSC19506 | 0.12 |
| CG15572 | DRSC18060 | 0.44 |
| FucTA | DRSC10733 | 0.23 |
| CG18649 | DRSC10334 | 0.21 |
| alien | DRSC03482 | -1.22 |
| CG5808 | DRSC14124 | -0.22 |
| wge | DRSC15246 | 0.04 |
| wge | DRSC15672 | 0.37 |
| Adss | DRSC14162 | 0.25 |
| scaf | DRSC04849 | 0.2 |
| Drsl2 | DRSC08160 | 0.25 |
| Su(var)3-7 | DRSC16872 | -0.02 |
| CG3337 | DRSC15478 | -1.16 |
| Hsp70Aa + Hsp70Ab | DRSC21246 | -1.65 |
| Pxn | DRSC08685 | -0.88 |

Laid out differently: entries from further up
target | amplicon | z-score, replicate 1
CG12986 | DRSC19506 | 0.12
CG15572 | DRSC18060 | 0.44
FucTA | DRSC10733 | 0.23
CG18649 | DRSC10334 | 0.21
alien | DRSC03482 | -1.22
CG5808 | DRSC14124 | -0.22
wge | DRSC15246 | 0.04
